From PubChem BioAssay (EPA / NIEHS)
Values joined by “and” are separate entries in the source; they are usually repeats but may differ in a detail not shown here. Equal values may be shown once. This list was built around the results that the source calls inconclusive (neither active nor inactive); the mix of calls is not that of the screen. Potencies beside an inconclusive call are fits to weak or partial responses and may not hold up. Active and inactive are the calls of the source. Rule for the calls: active = hit-call score of the fitted dose curve at least 0.9, where 1 is the maximum; inconclusive = response in the unintended direction; inactive = score below 0.9.

Protein sequences, listed by entry. Tags and fused reporters are not part of them. Lines headed by an entry give the natural chain unless they say otherwise; changes in a name come on top.
UniProt Q07869: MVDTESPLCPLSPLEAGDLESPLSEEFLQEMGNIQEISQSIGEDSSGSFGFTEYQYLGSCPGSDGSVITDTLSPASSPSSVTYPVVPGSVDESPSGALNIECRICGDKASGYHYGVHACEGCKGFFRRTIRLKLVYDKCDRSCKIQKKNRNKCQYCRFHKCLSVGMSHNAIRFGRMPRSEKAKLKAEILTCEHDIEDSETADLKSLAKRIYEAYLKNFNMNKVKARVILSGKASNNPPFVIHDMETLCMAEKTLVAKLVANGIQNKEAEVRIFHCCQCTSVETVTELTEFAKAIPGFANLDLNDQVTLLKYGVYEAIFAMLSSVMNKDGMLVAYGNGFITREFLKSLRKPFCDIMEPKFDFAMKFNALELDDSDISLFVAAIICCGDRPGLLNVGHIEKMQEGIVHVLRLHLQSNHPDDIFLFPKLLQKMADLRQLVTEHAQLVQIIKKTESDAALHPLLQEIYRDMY

Molecular target: human Peroxisome Proliferator-activated Receptor alpha (PPARa), PPARA (gene 5465) (UniProt Q07869)
Experiment: ATG_PPARa_TRANS: Attagene TRANS-FACTORIAL HepG2 Assay for human Peroxisome Proliferator-activated Receptor alpha (PPARa) (AID 2283001);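 for AC50: potency for gain of reporter signal over DMSO so agonist or activator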
Procedure: ATG_TRANS is a cell-based, multiplexed-readout assay that uses HepG2, a human liver cell line, with measurements taken at 24 hours after chemical dosing in a 24-well plate.ATG_PPARa_TRANS is one of 30 assay component(s) measured or calculated from the ATG_TRANS assay. It is designed to make measurements of mRNA induction, a form of inducible reporter, as detected with fluorescence intensity signals by Reverse transcription polymerase chain reaction (RT-PCR) and Capillary electrophoresis technology.Data from the assay component ATG_PPARa_TRANS was analyzed into 1 assay endpoint. This assay endpoint, ATG_PPARa_TRANS, was analyzed in the positive analysis fitting direction relative to DMSO as the negative control and baseline of activity. Using a type of inducible reporter, measures of mRNA for gain-of-signal activity can be used to understand the reporter gene at the transcription factor-level as they relate to the gene PPARA. Furthermore, this assay endpoint can be referred to as a primary readout, because this assay has produced multiple assay endpoints where this one serves a reporter gene function. To generalize the intended target to other relatable targets, this assay endpoint is annotated to the nuclear receptor intended target family, where the subfamily is non-steroidal.
Human liver HepG2 cells are transiently transfected with multiple reporter transcription units (MRTUs) in 6-well plates using FuGene 6 reagent (Roche; 3 ml FuGene/1 mg DNA). The MRTU constructs are regulated by a cis-regulating element (promoter). […] A major difference between the CIS and TRANS system is that in CIS activities of endogenous TFs are measured, whereas the TRANS assay evaluates changes in activities of exogenous, chimeric NR-Gal4 proteins. […] At the end of 24 hour incubation, total RNA was isolated using TriZol reagent (Invitrogen). The isolated RNA is then reverse-transcribed using oligo(dT) primer and Mo-MLV reverse transcriptase (Invitrogen) with DNAse I (Ambion) treatment for 30 min. The one-tenth of the produced cDNA was amplified by PCR using Taq DNA polymerase (Invitrogen) and two reporter sequence-specific primers. The PCR products were fluorescently labeled by primer extension with 6-arboxyfluorescein (6-FAM) 5'-labeled reporter sequence-specific primer (2 min at 95 C, 20 s at 68 C and 10 min at 72 C) and these products were digested with 5U of HpaI (New England Biolabs) for 2h at 37 C. The fragments were purified using Qiaquick PCR columns (Qiagen), analyzed on an ABI 3130xL genetic analyzer (Applied Biosystems) with peak positions identified by using a set of X-rhodamine (ROX)-labeled MapMarker1000 molecular weight standards (BioVentures). The raw capillary electrophoresis data was processed using Attagraph software (Attagene).

| SMILES | outcome | AC50 |
| --- | --- | --- |
| CCCCC(CC)COC(C)=O (stereo not given) | inactive |  |
| Fc1c(F)c(F)c(Br)c(F)c1F |  | inconclusive: 1.81 µM |
| Nc1ccc2c(c1)C(=O)c1ccccc1C2=O |  | inconclusive: 0.125 µM |
| OCC#CCO | inactive |  |
| CC(=O)Oc1ccc(C(C)=O)cc1 | inactive |  |
| C=Cc1ccc(C(C)(C)C)cc1 |  | inconclusive: 0.902 µM |
| Cc1cc(N)n(-c2ccccc2)n1 |  | inconclusive: 0.0918 µM |
| O=C(CCCCCCCCc1cccnc1)N1CCC(C=C(c2ccccc2)c2ccccc2)CC1 |  | inconclusive: 0.751 µM |
| C=CC(C)(O)CCC=C(C)CCC=C(C)C (stereo not given) | inactive |  |
| O=C1CCCCCCCCCCCCCCO1 |  | active: 100 µM |
| C=CC(=O)OCCOC1C2CCC1C1CC=CC12 (stereo not given) | inactive |  |
| CCCCCc1ccc(O)cc1 | inactive |  |
| CCCO[Si](OCCC)(OCCC)OCCC |  | inconclusive: 100 µM |
| Nc1ccccc1[N+](=O)[O-] |  | inconclusive: 0.0094 µM |
| C[C@]12CC[C@@H]3c4ccc(O)cc4CC[C@H]3[C@@H]1CCC2=O | inactive | inconclusive: 856 nM and inconclusive: 6.29 µM and inconclusive: 47.5 µM |
| CC1=CC(C)C(C=O)C(C)C1 (stereo not given) (tested in a mixture with another compound) | inactive |  |
| O=C(Oc1ccccc1)c1ccc(O)cc1 | inactive |  |

2 entries drawn at random from those above:

| SMILES | outcome | AC50 |
| --- | --- | --- |
| Nc1ccc2c(c1)C(=O)c1ccccc1C2=O |  | inconclusive: 0.125 µM |
| CC1=CC(C)C(C=O)C(C)C1 (stereo not given) (tested in a mixture with another compound) | inactive |  |

Going on with the list:

| SMILES | outcome | AC50 |
| --- | --- | --- |
| CCCO |  | inconclusive: 0.0603 µM |
| CCOCCOCCO | inactive |  |
| CCN(CCO)c1cccc(C)c1 |  | inconclusive: 100 µM |
| C(=CC=Nc1ccccc1)C=CNc1ccccc1 | inactive |  |
| c1ccc2c(c1)ccc1ccccc12 |  | inconclusive: 100 µM |
| CC(C)(C)c1ccc(CCC=O)cc1 |  | inconclusive: 26.2 µM |
| CC(C)COC(=O)c1ccccc1O |  | inconclusive: 26.4 µM |
| CCCCC/C=C\C=C\C(=O)OCC | inactive |  |
| CN(C)Cc1ccccc1O | inactive |  |
| CCCCCCOCCOCCO |  | inconclusive: 183 µM |
| CCC[Si](OC)(OC)OC |  | inconclusive: 100 µM |
| O=C(c1ccccc1)c1ccc(O)c(O)c1O | inactive |  |
| CC(C)c1cccc(C(C)C)c1N | inactive |  |
| C=CC(=O)NCOCC(C)C | inactive |  |
| ON=C1CCCCC1 | inactive |  |
| O=C1OCc2ccccc21 |  | inconclusive: 100 µM |
